PMC9425028

B1: wild-type recombinant mouse MASP-3 fused with PA-tag (WT rmMASP-3-PA) [mouse] / mouse mannose-binding lectin C (MBL-C) [mouse (endogenous in serum of C57BL/6J mice)] (parent)
chain 1: HTVELNEMFGQIQSPGYPDSYPSDSEVTWNITVPEGFRIKLYFMHFNLESSYLCEYDYVKVETEDQVLATFCGRETTDTEQTPGQEVVLSPGTFMSVTFRSDFSNEERFTGFDAHYMAVDVDECKEREDEELSCDHYCHNYIGGYYCSCRFGYILHTDNRTCRVECSGNLFTQRTGTITSPDYPNPYPKSSECSYTIDLEEGFMVSLQFEDIFDIEDHPEVPCPYDYIKIKAGSKVWGPFCGEKSPEPISTQTHSVQILFRSDNSGENRGWRLSYRAAGNECPKLQPPVYGKIEPSQAVYSFKDQVLVSCDTGYKVLKDNEVMDTFQIECLKDGAWSNKIPTCKIVDCGAPAGLKHGLVTFSTRNNLTTYKSEIRYSCQQPYYKMLHNTTGVYTCSAHGTWTNEVLKRSLPTCLPVCGQPSRALPNLVKRIIGGRNAELGLFPWQALIVVEDTSRVPNDKWFGSGALLSESWILTAAHVLRSQRRDNTVIPVSKEHVTVYLGLHDVRDKSGAVNSSAARVILHPDFNIQNYNHDIALVQLQKPVPLGAHVMPICLPRPEPEGPAPHMLGLVAGWGISNPNVTVDEIILSGTRTLSDVLQYVKLPVVSHAECKASYESRSGNYSVTENMFCAGYYEGGKDTCLGDSGGAFVIFDEMSQHWVAQGLVSWGGPEECGSKQVYGVYTKVSNYVDWLWEEMNSPRAVRDLQVER
chain 2: ETLTEGVQNSCPVVTCSSPGLNGFPGKDGRDGAKGEKGEPGQGLRGLQGPPGKVGPTGPPGNPGLKGAVGPKGDRGDRAEFDTSEIDSEIAALRSELRALRNWVLFSLSEKVGKKYFVSSVKKMSLDRVKALCSEFQGSVATPRNAEENSAIQKVAKDIAYLGITDVRVEGSFEDLTGNRVRYTNWNDGEPNNTGDGEDCVVILGNGKWNDVPCSDSFLAICEFSD

Variants of: B1
Experiment: immunoprecipitation with anti-PA tag antibody beads from mouse serum, Western blot band intensity
Settings: with mouse mannose-binding lectin C (MBL-C) [mouse (endogenous in serum of C57BL/6J mice)]; TBS containing 7 mM MgCl2 and 5 mM CaCl2 (TBS/Mg/Ca); parent: 1; read off a plot
Work on chain 1 D102A yielded a ratio to parent of 0.12. For chain 1 E49A, the ratio to parent was 0.05. Work on chain 1 H218A yielded a ratio to parent of 0.12. With chain 1 Y225A the ratio to parent was 0.07.
